Assay results: PMC8445821
Results are given in words; binding and its absence hold for the method and conditions named. Binding seen in cells or lysates may run through a third protein. Some results given as binding are weak or reduced against the parent protein; the word gives no strength. Each block holds one substance with its values, some of them ahead of it.

By UniProt entry, the sequences of proteins in these tests, tags left out. Where a name states a change or a piece, a line headed by the entry shows the natural chain unless it says otherwise. Residues count along the entry.
UniProt P10244: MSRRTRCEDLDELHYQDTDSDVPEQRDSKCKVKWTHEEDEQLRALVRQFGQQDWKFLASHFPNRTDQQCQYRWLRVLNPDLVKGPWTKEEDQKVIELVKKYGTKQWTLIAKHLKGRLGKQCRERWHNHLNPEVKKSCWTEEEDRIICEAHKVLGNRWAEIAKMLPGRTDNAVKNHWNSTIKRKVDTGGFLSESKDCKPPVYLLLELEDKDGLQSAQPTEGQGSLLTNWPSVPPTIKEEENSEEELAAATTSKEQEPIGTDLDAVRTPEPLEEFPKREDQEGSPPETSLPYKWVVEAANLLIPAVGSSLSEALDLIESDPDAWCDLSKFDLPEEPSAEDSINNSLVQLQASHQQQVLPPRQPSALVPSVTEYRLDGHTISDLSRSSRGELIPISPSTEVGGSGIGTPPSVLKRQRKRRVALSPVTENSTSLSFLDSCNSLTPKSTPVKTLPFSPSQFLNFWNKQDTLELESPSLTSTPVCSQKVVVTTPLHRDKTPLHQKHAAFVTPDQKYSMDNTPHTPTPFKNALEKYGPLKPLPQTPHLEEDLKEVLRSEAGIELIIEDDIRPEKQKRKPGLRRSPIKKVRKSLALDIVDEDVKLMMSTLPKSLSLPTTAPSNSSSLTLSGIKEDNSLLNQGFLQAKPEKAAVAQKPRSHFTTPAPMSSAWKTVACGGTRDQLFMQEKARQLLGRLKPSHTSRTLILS
B-Myb amino acid 1-561 region (deletion mutant): residues 1-561 of P10244
UniProt Q14209: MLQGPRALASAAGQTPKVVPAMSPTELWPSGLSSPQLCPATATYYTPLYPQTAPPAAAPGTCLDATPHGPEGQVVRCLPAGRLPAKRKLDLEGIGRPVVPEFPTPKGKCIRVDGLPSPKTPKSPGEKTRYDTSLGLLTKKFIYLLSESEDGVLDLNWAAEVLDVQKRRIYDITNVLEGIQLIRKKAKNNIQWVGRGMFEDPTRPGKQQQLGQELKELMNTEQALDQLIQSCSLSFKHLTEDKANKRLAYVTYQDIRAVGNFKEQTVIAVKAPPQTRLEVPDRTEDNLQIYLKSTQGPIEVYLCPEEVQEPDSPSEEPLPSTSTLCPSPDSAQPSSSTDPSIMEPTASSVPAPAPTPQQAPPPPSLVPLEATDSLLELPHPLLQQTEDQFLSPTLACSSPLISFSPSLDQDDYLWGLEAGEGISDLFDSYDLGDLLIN

Legend:
[1] = target: B-Myb-Flag (LV203-B-Myb-Flag) (human) (UniProt P10244); test: co-IP; HCT116 cells co-transfected with LV203-B-Myb-Flag and pcDNA3.0-E2F2, whole cell lysates 48 h after transfection, anti-Flag immunoprecipitates blotted for E2F2
[2] = target: B-Myb in HCT116 and RKO cells (proximity ligation assay) (human (in HCT116 and RKO cells)) (UniProt P10244); test: proximity ligation; in situ PLA in HCT116 and RKO cells with antibodies against B-Myb and E2F2; either antibody alone as control
[3] = target: Flag-B-Myb (LV105-Flag-B-Myb) (human) (UniProt P10244); test: co-IP; HEK293 cells transiently co-transfected with LV105-Flag-B-Myb or pCDH-puro-HA-E2F2 and the indicated deletion mutants, whole cell lysates 48 h after transfection
[4] = target: B-Myb amino acid 1-561 region (deletion mutant) (human) (UniProt P10244); test: as above

- binding [1]: binds
Substance: E2F2 (pcDNA3.0-E2F2) (from UniProt Q14209 1-437)

- binding [2]: binds
Substance: E2F2 in HCT116 and RKO cells (proximity ligation assay) (from UniProt Q14209 1-437)

- binding [3]: binds
Substance: E2F2 amino acid 1-244 region (deletion mutant) (from UniProt Q14209 1-244) (domain or fragment)

- binding [4]: binds
Substance: HA-E2F2 (pCDH-puro-HA-E2F2) (from UniProt Q14209 1-437)
